Test [1] concerns the target Amyloid Beta (antigen of the Amyloid Beta ELISA) (UniProt P05067). As to the kind of experiment: Amyloid Beta ELISA, purified antibodies.
Test [2] has the same target. The test can be described thus: Amyloid Beta ELISA, antibodies purified from NS0 lines, A405 against ng/well.
For test [3] the target is unchanged. The test can be described thus: Amyloid Beta ELISA, conditioned medium from transient transfection.
Test [4] deals with amyloid plaques of brains from AD disease patients (human) (UniProt P05067). The test can be described thus: immunohistochemistry, paraffin sections of human brain pretreated with formic acid.
Test [5] deals with Amyloid Beta (antigen of the Amyloid Beta ELISA) (UniProt P05067). As to the kind of experiment: ELISA for binding to Amyloid Beta, conditioned medium from transient transfection. For orientation: ELISA stands for enzyme-linked immunosorbent assay.
Test [6] shares this target. The test can be described thus: Amyloid Beta ELISA, antibody purified from stable NS0 cell lines.
Test [7] shares this target. As to the kind of experiment: Amyloid Beta ELISA, conditioned medium of transient transfection, A405 against ng/well.
The target in test [8] is diffuse plaques in non-demented pre-AD patients (human) (UniProt P05067). The test can be described thus: immunohistochemistry on human brain sections.
For test [9], the target named is Amyloid in cerebral amyloid angiopathy (CAA) (human) (UniProt P05067). As to the kind of experiment: immunohistochemistry on human brain sections.
The target in test [10] is Amyloid Beta (antigen of the Amyloid Beta ELISA) (UniProt P05067). The test can be described thus: Amyloid Beta ELISA, purified antibody, A405 against ng/well.

The chains behind the UniProt entries cited, without tags or fusion partners. Residues count along the entry.
Amyloid Beta (antigen of the Amyloid Beta ELISA) (P05067, residues 672-713): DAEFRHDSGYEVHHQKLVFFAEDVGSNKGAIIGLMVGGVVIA
Amyloid in cerebral amyloid angiopathy (CAA) (P05067, residues 672-711): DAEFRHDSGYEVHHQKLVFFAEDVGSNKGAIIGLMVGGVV

The values below come from patent US20160244514A1.

Results are given in words; binding and its absence hold for the method and conditions named. Some entries that bind do so weakly or less than the wild type.

B1: humanized antibody C2 HuVH2/HuVK1 (antibody, human IgG4 S228P, kappa, V domains shown)
VH: EVQLVESGGGLVQPGGSLRLSCAASGFTFSSYGMSWVRQAPGKGLEWVASINSNGGSTYYPDSVKGRFTISRDNAKNSLYLQMNSLRAEDTAVYYCASGDYWGQGTTVTVSS
VL: DIVMTQSPLSLPVTPGEPASISCRSSQSLVYSNGDTYLHWYLQKPGQSPQLLIYKVSNRFSGVPDRFSGSGSGTDFTLKISRVEAEDVGVYYCSQSTHVPWTFGQGTKVEIKR
B1: the binding result in test [1] and in [2] was “binds” each time.

B2: C2 HuVH AF version 2 combined with the chimeric C2 kappa chain (antibody, V domains shown)
VH: EVQLVESGGGLVQPGGSLRLSCAASGFTFSSYGMSWVRQAPGKGLEWVASINSNGGSTYYPDSVKGRFTISRDNAKNSLYLQMNSLRAEDTAVYYCASGDYWGQGTTVTVSS
VL: DVVMTQTPLSLPVSLGDQASISCRSSQSLVYSNGDTYLHWYLQKPGQSPKLLIYKVSNRFSGVPDRFSGSGSGTDFTLKISRVEAEDLGVYFCSQSTHVPWTFGGGTKLEIK
Consider B2, for which the binding result in [3] was “binds”.

B3: chimeric antibody C2 ChVH AF/ChVK (antibody, human IgG4 S228P, kappa, V domains shown)
VH: EVQLVESGGGLVQPGGSLKLSCAASGFTFSSYGMSWVRQTPDKRLELVASINSNGGSTYYPDSVKGRFTISRDNAKNTLYLQMSSLKSEDTAMYYCASGDYWGQGSTLTVSS
VL: DVVMTQTPLSLPVSLGDQASISCRSSQSLVYSNGDTYLHWYLQKPGQSPKLLIYKVSNRFSGVPDRFSGSGSGTDFTLKISRVEAEDLGVYFCSQSTHVPWTFGGGTKLEIKR
In the case of B3, the binding result in [4], in test [5], in test [2], in [6], in test [7] and in [8] was “binds” in each case. Moreover, the binding entry in test [9] and in test [10] was “binds” each time.

B4: humanized antibody C2 HuVH2/HuVK4 (antibody, human IgG4 S228P, kappa, V domains shown)
VH: EVQLVESGGGLVQPGGSLRLSCAASGFTFSSYGMSWVRQAPGKGLEWVASINSNGGSTYYPDSVKGRFTISRDNAKNSLYLQMNSLRAEDTAVYYCASGDYWGQGTTVTVSS
VL: DIVMTQSPLSLPVTPGEPASISCRSSQSLVYSNGDTYLHWYLQKPGQSPKLLIYKVSNRFSGVPDRFSGSGSGTDFTLKISRVEAEDVGVYFCSQSTHVPWTFGQGTKVEIKR
B4: the binding result in test [1] and in test [2] was “binds” in each case.

B5: humanized antibody C2 HuVH2/HuVK3 (antibody, human IgG4 S228P, kappa, V domains shown)
VH: EVQLVESGGGLVQPGGSLRLSCAASGFTFSSYGMSWVRQAPGKGLEWVASINSNGGSTYYPDSVKGRFTISRDNAKNSLYLQMNSLRAEDTAVYYCASGDYWGQGTTVTVSS
VL: DIVMTQSPLSLPVTPGEPASISCRSSQSLVYSNGDTYLHWYLQKPGQSPKLLIYKVSNRFSGVPDRFSGSGSGTDFTLKISRVEAEDVGVYYCSQSTHVPWTFGQGTKVEIKR
Turning to B5, the binding entry in [2] was “binds”.

B6: VK-S antibody (mC2 VK-S with chimeric C2 VH) (antibody, V domains shown)
VH: EVQLVESGGGLVQPGGSLKLSCAASGFTFSSYGMSWVRQTPDKRLELVASINSNGGSTYYPDSVKGRFTISRDNAKNTLYLQMSSLKSEDTAMYYCASGDYWGQGSTLTVSS
VL: DVVMTQTPLSLPVSLGDQASISCRSSQSLVYSNGDTYLHWYLQKPGQSPKLLIYKVSSRFSGVPDRFSGSGSGTDFTLKISRVEAEDLGVYFCSQSTHVPWTFGGGTKLEIK
On to B6, for which the binding entry in [7] and in [3] was “binds” in each case.

B7: VK-R antibody (mC2 VK-R with chimeric C2 VH) (antibody, V domains shown)
VH: EVQLVESGGGLVQPGGSLKLSCAASGFTFSSYGMSWVRQTPDKRLELVASINSNGGSTYYPDSVKGRFTISRDNAKNTLYLQMSSLKSEDTAMYYCASGDYWGQGSTLTVSS
VL: DVVMTQTPLSLPVSLGDQASISCRSSQSLVYSNGDTYLHWYLQKPGQSPKLLIYRVSNRFSGVPDRFSGSGSGTDFTLKISRVEAEDLGVYFCSQSTHVPWTFGGGTKLEIK
For the molecule B7, the binding entry in test [7] and in test [3] was “binds” throughout.

B8: humanized antibody C2HuVH4/HuVK2 (antibody, human IgG4 S228P, kappa, V domains shown)
VH: EVQLVESGGGLVQPGGSLRLSCAASGFTFSSYGMSWVRQAPGKGLELVASINSNGGSTYYPDSVKGRFTISRDNAKNSLYLQMNSLRAEDTAVYYCASGDYWGQGTTVTVSS
VL: DIVMTQSPLSLPVTPGEPASISCRSSQSLVYSNGDTYLHWYLQKPGQSPQLLIYKVSNRFSGVPDRFSGSGSGTDFTLKISRVEAEDVGVYFCSQSTHVPWTFGQGTKVEIKR
In the case of B8, the binding result in test [1] and in test [2] was “binds” each time.
